The other results are listed elsewhere or left out. Small differences around the control level are noise.

Chains of the proteins cited; added tags and fusions are not shown. Lines headed by an entry give the natural chain unless they say otherwise; changes in a name come on top.
UniProt Q9GZR1: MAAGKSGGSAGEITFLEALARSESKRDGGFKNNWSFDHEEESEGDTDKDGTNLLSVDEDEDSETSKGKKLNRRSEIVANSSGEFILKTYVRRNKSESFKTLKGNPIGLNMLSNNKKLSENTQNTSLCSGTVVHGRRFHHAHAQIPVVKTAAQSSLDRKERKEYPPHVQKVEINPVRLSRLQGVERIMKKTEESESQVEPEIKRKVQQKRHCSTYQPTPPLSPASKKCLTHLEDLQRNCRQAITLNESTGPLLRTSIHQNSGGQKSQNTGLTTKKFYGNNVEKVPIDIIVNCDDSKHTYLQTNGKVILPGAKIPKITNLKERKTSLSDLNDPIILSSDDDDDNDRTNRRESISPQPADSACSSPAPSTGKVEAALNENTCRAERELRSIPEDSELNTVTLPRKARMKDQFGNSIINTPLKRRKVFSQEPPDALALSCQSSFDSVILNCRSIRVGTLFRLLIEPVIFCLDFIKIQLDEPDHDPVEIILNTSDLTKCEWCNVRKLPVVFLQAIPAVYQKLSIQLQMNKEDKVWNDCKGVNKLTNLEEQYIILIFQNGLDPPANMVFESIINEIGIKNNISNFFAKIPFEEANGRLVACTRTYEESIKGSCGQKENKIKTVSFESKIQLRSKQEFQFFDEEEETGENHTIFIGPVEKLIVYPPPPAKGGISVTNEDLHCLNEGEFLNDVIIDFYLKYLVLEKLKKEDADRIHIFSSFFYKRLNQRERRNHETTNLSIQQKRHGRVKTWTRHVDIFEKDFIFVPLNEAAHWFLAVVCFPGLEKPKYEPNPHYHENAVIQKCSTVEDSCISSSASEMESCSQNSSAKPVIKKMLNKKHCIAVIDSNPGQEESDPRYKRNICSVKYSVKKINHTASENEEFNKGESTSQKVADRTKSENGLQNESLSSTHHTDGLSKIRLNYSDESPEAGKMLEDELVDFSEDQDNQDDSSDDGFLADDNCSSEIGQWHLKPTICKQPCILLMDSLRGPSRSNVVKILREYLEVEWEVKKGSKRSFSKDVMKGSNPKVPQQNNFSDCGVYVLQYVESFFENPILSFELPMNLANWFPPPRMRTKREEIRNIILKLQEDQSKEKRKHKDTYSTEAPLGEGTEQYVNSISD
UniProt Q9H0X4: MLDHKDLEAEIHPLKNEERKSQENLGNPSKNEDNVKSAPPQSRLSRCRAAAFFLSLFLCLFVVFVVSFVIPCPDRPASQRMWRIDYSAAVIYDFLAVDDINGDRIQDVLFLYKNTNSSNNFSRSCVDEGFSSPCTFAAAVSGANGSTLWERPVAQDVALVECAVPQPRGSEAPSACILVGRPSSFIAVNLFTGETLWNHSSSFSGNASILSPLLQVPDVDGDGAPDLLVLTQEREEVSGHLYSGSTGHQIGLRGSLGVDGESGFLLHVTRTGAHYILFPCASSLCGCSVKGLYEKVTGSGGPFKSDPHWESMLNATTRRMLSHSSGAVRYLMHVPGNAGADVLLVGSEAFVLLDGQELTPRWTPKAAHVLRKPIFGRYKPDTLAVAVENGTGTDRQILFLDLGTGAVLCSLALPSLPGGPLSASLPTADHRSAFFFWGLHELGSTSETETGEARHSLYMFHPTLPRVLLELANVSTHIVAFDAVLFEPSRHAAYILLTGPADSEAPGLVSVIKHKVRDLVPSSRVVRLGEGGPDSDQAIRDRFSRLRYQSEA
UniProt Q9BYW2: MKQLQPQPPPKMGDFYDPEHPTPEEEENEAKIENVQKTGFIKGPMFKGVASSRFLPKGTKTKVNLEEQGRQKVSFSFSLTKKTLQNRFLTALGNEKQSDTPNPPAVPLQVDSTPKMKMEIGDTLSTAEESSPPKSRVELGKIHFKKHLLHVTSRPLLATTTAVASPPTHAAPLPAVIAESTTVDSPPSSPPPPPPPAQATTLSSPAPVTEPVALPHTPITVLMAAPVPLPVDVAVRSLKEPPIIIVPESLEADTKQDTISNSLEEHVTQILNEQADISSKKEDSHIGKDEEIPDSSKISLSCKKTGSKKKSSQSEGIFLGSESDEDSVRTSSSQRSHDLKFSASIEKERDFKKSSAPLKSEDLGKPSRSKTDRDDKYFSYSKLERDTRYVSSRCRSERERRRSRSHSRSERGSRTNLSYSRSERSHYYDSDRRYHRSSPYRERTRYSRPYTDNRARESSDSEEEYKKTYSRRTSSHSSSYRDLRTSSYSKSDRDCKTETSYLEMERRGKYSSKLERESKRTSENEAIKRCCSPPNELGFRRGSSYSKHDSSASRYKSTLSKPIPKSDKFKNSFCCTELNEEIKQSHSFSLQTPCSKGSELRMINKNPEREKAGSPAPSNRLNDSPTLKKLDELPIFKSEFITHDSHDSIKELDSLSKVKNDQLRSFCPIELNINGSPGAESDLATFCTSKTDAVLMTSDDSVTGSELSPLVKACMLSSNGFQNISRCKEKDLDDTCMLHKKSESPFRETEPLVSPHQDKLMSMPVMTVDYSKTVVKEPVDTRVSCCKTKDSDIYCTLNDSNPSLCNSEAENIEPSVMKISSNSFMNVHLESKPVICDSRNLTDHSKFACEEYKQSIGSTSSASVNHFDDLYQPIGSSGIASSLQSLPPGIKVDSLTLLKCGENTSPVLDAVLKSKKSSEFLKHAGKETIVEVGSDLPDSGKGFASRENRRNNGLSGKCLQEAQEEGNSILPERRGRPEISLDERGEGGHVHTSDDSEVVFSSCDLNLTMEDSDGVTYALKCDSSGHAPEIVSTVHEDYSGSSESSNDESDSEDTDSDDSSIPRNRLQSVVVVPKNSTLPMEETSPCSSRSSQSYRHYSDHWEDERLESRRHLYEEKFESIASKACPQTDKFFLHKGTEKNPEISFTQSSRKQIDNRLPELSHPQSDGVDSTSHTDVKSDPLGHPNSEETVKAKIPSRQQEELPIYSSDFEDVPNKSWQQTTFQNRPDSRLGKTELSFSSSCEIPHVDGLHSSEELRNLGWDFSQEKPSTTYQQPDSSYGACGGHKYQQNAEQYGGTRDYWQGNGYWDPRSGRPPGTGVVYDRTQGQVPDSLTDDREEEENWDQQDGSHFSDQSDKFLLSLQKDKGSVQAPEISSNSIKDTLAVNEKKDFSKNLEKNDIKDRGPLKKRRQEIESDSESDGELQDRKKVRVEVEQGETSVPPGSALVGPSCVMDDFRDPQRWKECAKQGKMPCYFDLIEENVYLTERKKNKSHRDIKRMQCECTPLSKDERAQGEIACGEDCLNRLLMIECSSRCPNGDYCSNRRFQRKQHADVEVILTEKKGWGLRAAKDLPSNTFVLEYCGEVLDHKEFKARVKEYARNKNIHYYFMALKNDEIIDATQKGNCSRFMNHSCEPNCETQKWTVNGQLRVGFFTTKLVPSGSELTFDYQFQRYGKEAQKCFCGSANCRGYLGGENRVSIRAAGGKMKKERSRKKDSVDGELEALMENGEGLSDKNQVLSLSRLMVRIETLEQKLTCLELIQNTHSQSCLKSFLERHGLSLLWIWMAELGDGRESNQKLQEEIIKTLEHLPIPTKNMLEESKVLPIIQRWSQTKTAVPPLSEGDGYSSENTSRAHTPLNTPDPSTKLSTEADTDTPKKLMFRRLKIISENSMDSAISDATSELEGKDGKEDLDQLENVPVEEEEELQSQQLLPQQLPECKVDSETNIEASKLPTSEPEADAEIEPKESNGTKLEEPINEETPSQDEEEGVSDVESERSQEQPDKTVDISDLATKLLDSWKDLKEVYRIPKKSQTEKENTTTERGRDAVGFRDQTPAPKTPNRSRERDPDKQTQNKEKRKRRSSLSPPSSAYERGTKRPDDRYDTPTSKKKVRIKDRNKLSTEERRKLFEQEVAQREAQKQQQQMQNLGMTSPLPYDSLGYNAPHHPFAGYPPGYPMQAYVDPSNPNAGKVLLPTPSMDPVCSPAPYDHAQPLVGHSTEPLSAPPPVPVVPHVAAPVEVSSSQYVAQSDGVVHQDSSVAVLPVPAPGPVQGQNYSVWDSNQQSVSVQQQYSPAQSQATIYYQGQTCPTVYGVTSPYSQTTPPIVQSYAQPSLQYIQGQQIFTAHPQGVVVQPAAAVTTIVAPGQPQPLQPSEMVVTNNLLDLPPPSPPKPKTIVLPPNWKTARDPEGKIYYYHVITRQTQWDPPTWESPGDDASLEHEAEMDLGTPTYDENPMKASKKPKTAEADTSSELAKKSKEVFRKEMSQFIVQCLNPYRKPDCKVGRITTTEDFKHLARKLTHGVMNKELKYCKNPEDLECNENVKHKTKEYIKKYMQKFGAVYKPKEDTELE
UniProt Q9C0J8: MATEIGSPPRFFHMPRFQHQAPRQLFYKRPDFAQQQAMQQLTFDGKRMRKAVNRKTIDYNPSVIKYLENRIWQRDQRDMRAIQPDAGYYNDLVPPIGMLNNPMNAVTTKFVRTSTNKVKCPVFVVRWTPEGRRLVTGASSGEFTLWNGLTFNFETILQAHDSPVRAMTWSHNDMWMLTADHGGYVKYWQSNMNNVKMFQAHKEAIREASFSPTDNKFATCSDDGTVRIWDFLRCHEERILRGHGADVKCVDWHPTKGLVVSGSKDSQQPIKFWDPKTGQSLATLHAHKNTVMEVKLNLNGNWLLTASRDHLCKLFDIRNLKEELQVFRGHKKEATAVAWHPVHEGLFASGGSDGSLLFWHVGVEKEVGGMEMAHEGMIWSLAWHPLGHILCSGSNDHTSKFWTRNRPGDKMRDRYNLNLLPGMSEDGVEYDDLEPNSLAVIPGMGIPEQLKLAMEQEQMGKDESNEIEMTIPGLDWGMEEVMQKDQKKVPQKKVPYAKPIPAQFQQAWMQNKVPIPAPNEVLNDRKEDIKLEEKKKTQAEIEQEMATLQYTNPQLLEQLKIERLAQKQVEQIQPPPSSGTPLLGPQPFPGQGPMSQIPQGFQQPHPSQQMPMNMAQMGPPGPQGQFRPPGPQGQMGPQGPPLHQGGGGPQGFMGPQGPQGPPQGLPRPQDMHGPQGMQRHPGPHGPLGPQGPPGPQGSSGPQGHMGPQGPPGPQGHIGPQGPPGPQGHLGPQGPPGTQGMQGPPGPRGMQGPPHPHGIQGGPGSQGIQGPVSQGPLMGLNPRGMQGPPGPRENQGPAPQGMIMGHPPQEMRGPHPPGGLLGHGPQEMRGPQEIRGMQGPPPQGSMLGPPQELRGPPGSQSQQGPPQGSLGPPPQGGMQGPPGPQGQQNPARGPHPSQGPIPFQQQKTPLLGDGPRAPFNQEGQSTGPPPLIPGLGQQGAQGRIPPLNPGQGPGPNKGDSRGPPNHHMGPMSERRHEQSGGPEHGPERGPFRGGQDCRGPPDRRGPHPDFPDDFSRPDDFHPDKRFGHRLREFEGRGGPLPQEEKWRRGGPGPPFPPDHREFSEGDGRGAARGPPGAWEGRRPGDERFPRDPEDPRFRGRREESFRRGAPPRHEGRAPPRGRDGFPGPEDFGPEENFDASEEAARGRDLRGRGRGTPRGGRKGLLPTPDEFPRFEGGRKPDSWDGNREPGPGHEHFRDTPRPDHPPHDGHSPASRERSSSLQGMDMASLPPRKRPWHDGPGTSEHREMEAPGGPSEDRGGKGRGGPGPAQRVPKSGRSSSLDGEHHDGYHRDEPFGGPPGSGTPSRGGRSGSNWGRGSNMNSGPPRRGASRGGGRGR
UniProt Q9C035: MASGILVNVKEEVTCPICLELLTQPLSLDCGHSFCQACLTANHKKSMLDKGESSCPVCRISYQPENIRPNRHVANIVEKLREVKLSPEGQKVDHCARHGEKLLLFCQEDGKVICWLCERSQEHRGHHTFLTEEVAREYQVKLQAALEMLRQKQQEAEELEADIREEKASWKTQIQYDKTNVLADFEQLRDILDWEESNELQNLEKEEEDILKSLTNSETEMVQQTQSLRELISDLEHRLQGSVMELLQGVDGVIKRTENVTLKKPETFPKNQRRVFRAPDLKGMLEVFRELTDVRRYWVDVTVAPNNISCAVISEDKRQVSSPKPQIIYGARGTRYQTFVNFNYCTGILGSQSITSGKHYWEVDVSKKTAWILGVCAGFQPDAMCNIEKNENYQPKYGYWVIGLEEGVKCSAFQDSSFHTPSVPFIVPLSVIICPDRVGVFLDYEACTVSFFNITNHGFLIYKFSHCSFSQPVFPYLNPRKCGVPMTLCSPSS
UniProt Q9BY11: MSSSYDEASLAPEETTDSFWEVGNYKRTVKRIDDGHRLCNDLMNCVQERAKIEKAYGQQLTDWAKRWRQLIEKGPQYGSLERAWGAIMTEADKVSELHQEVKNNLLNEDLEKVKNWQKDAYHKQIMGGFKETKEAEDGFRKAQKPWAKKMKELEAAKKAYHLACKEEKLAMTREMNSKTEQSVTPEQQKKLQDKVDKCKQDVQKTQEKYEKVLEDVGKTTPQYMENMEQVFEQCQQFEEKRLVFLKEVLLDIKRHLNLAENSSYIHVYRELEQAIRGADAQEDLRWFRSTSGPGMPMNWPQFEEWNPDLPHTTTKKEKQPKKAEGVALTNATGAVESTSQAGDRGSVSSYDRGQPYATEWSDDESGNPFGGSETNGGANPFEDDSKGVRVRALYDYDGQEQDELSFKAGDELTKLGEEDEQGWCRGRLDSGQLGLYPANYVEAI

Compound in this assay: CN[C@@H]1C[C@H]2O[C@@](C)([C@@H]1OC)n1c3ccccc3c3c4c(c5c6ccccc6n2c5c31)C(=O)NC4 [staurosporine]
In words: log2 fold change of tryptic peptide abundance, ligand vs vehicle (limited proteolysis) (log2 ratio); higher = more trypsin-susceptible (destabilized). The note with it: ligand concentration: 20 uM; sample: K562 cleared lysate; digestion: 4 min, 22 C (HT-PELSA RT4min, Orbitrap Astral).
In the case of “SENP6 (peptide sequence: KFYGNNVEKVPIDIIVNCDDSK, peptide start residue: 274) (UniProt Q9GZR1)”, the log2 fold change turned out to be 0.345.

Take “GZF1 (peptide sequence: NDDGHKTEQPDEEYVSSK, peptide start residue: 616) (UniProt Q9H116)”: the log2 fold change was -0.274.

Turning to “POLDIP3 (peptide sequence: INVVNNHQAK, peptide start residue: 169) (UniProt Q9BY77)”, the log2 fold change came to 0.37.

Turning to “UniProt Q9H0X4 (peptide sequence: KPIFGRYK, peptide start residue: 372)”, the log2 fold change is -0.0829.

With “SETD2 (peptide sequence: EMSQFIVQCLNPYR, peptide start residue: 2477) (UniProt Q9BYW2)”, the log2 fold change came to 0.559.

On to “WDR33 (peptide sequence: EMEAPGGPSEDRGGK, peptide start residue: 1246) (UniProt Q9C0J8)”, for which the log2 fold change was -0.193.

On to “CHMP4A (peptide sequence: AALQALRR, peptide start residue: 61) (UniProt Q9BY43)”, for which the log2 fold change was -0.676.

“TRIM5 (peptide sequence: SLTNSETEMVQQTQSLR, peptide start residue: 213) (UniProt Q9C035)”: the log2 fold change is 0.166.

“PACSIN1 (peptide sequence: TEQSVTPEQQK, peptide start residue: 179) (UniProt Q9BY11)”: the log2 fold change is -0.0885.

Values taken from the supplement of paper PMC12819154, “High-throughput peptide-centric local stability assay extends protein–ligand identification to membrane proteins, tissues and bacteria” (Nature Structural & Molecular Biology, 2025).
